T. brucei: 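Whole-parasite assay of Trypanosoma brucei over 72 hours; the read-out is not stated. Compounds at 30 µM. Direction is inferred from retests: higher values go with stronger inhibition. Values scatter widely below zero; nearly all retest evidence comes from the higher of the two concentrations used. Size under these conditions: about 64,000 compounds, about 940 of them at 50% or above in at least one test.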
Leishmania in macrophages: 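Cell assay of Leishmania donovani living inside macrophages; the read-out is not stated. Tested at 30 µM. The record gives no direction; compounds that gave an IC50 in retests scored well above the rest, so higher reads as stronger inhibition. Of about 69,000 compounds tested this way, about 1,000 (1.5%) reached 50% or more in at least one test.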
Toxoplasma: 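Assay of Toxoplasma gondii numbers, read through their beta-galactosidase reporter with a colour substrate. Compounds at 10 µM. Higher reads as fewer parasites (inferred from which compounds were picked for retests). About 67,000 compounds were tested under these conditions; 0.38% (about 260) showed 50% or more at least once.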

Each number is a percent effect as filed. The record does not define 0% and 100%; most values in the screen are far below 50% and negative numbers occur (in some assays of this library far below -100). Compounds were drawn at random from those tested, without regard to their results. Two or more numbers in one place are separate tests of the same structure; such repeats can differ widely. A dash means the value is not listed here; it may have been measured.

| # | Compound | T. brucei | Leishmania in macrophages | Toxoplasma |
|---|---|---|---|---|
| 1 | `Cc1ccc(C(=O)Nc2ccc(OC3CCN(C)CC3)cc2)c(C)c1` | -11.28 | 26.18 | 25.39 |
| 2 | `COCC1COCCC12CCN(C(=O)Cc1cccc(OC)c1)CC2` (stereo not drawn) | -34.56 | 2.862 | -0.3835 |
| 3 | `O=C(O)C(F)(F)F.[H][C@@]12COC[C@H](C(=O)N3CCCCO3)[C@]1([H])CN(Cc1cc(C)on1)C2` | -104.8 | -25.31 | -6.924 |
| 4 | `Cc1cc(C(=O)Nc2ccn(CCCN3CCCC3)n2)no1` | -1.682 | -7.725 | -17.38 |
| 5 | `CCC(CO)N(Cc1ccco1)C(=O)c1ccc(F)cc1Cl` (stereo not drawn) | 2.502 | 25.24 | 1.21 |
| 6 | `Cc1nc2n(n1)CC(NCc1c(Cl)ccc3cccnc13)CC2` (stereo not drawn) | -100.3 | -0.08208 | 32.78 |
| 7 | `COC(=O)c1ccc(N2CCN(C(=O)C3CC3)C(C)C2)cc1` (stereo not drawn) | -2.442 | -10.79 | -6.792 |
| 8 | `Cc1ccc(OCC(=O)Nc2ncccc2OC(F)F)cc1` | -28.88 | 23.14 | -3.793 |
| 9 | `Cc1cc(C(=O)N2CCCC2c2nnc3n2CCCCC3)no1` (stereo not drawn) | -25.57 | 22.03 | -1.628 |
| 10 | `CN(c1ncc(S(N)(=O)=O)s1)C1CCC1` | -11.91 | 27.02 | -9.85 |
| 11 | `COc1ccc(C2CCCN2C(=O)Nc2ccc(OC)nc2)cc1` (stereo not drawn) | 21.46 | 23.67 | 3.822 |
| 12 | `CCOCC1CN(C(=O)Cc2ccccn2)Cc2cn(C)nc21` (stereo not drawn) | 21.81 | 5.026 | 1.486 |
| 13 | `CC(C)C1=NOC2(CCN(Cc3c[nH]c4ccccc34)CC2)C1` | - | 1.888 | 33.52 |
| 14 | `Cc1csc(N2CCN(CC(=O)NCc3ccccn3)CC2C)n1` (stereo not drawn) | - | 4.023 | 12.66 |
| 15 | `CC(=O)N(Cc1ncc(C)o1)C1CCN(Cc2cccc(C#N)c2)C1` (stereo not drawn) | -28.29 | 6.646 | -3.668 |
| 16 | `CCOCc1nc2c(c(NC(CC)c3cccnc3)n1)CCNCC2` (stereo not drawn) | 1.58 | 0.8486 | -9.086 |
| 17 | `Cc1cccc2c1cnn2CCC(=O)NCc1csc(C2CC2)n1` | -15.72 | 12.82 | 8.993 |
| 18 | `COCc1cncc2c1CCN(Cc1ccccn1)C2.O=C(O)C(F)(F)F.O=C(O)C(F)(F)F.O=C(O)C(F)(F)F` | 49.23 | 5.175 | -6.734 |
| 19 | `O=C(CN1CCCC(c2ccn[nH]2)C1)N1CCCc2ccccc21` (stereo not drawn) | -60.51 | -7.148 | 2.295 |
| 20 | `[H][C@@]12CCN(C[C@@H]1CC)[C@@H](CNC(=O)c1ccco1)C2` | -7.107 | 19.11 | 19.27 |
| 21 | `CCc1noc(C)c1C(=O)N1CCC(c2[nH]ncc2S(C)(=O)=O)C1` (stereo not drawn) | 29.43 | 3.103 & -0.7853 | -9.394 |
| 22 | `CCS(=O)(=O)N1CCc2c(CN(C)Cc3ccco3)cncc2C1.Cl.Cl` | 17.2 | 17.51 | 2.35 |
| 23 | `CC(Cn1ccnc1)NC(=O)C1(c2cccc(Cl)c2)CC1` (stereo not drawn) | -17.43 | 28.3 | -1.5 |
| 24 | `O=C(NCC1CCCO1)c1csc(Cc2ccccc2)n1` (stereo not drawn) | -41.34 | -35.39 | -7.101 |
| 25 | `CN(C)Cc1cc(=O)n2c(n1)CN(Cc1ccco1)CCC2` | -26.77 | 24 | -13.27 |
| 26 | `Cc1occc1C(=O)N1CCCC(c2nncn2C)C1` (stereo not drawn) | - | 5.097 | -10.41 |
| 27 | `CCn1nnc2cc(C(=O)N3CCCC3Cn3cc(C)cn3)ccc21` (stereo not drawn) | -18.26 | 24.84 | - |
| 28 | `COCCN(Cc1ccc(C)o1)C(=O)Nc1nnc2ccccn12` | -44.28 | 5.444 | 24.82 |
| 29 | `Cc1ccc(CNCC2Cn3nnc(-c4cnn(C)c4)c3CO2)o1` (stereo not drawn) | -16.28 | 25.24 | 2.128 |
| 30 | `O=C1CCC(C(=O)N(Cc2ccsc2)CC2CCCO2)=NN1` (stereo not drawn) | -4.67 | 28.83 | - |
| 31 | `Cc1ccc(O)c(CNc2cccc(OCCF)c2)n1` | 9.446 | 16.26 | -9.779 |
| 32 | `COc1cccc(NC(=O)c2nc3ccccc3n(C)c2=O)c1` | 1.441 | -5.614 | 23.95 |
| 33 | `CCOc1c(Cl)cccc1NS(=O)(=O)c1cc(C)c(C(=O)O)s1` | -2.198 | 2.303 | 0.8696 |
| 34 | `Cc1nc2c(c(N(C)CC3Cc4ccccc4CN3C)n1)CCNCC2` (stereo not drawn) | 10.45 | 25 | 7.429 |
| 35 | `[H][C@]12CC[C@](O)(CC1)C(CO)N2C(=O)c1ccco1` (stereo partly drawn) | 3.532 | 6.617 | -32.65 |
| 36 | `CCN1CCC2(CC1)CC(NC(=O)c1c[nH]cn1)c1ccccc1O2` (stereo not drawn) | -36.88 | 21.5 | -13.34 |
| 37 | `Cc1nc(N)ccc1CC1COc2ccccc2C1` (stereo not drawn) | 26.78 | 6.989 | 17.14 |
| 38 | `CN(C)CCN1C(=O)C2(CCN(CC3CC3)CC2)c2ccccc21.O=C(O)C(F)(F)F.O=C(O)C(F)(F)F` | 22.71 | 1.7 | 8.212 |
| 39 | `CCc1nccn1C1CCCN(C(=O)c2ccc3[nH]nnc3c2)C1` (stereo not drawn) | 1.806 | -2.773 | 3.706 |
| 40 | `CC(=O)N1CCN(C(=O)Nc2cnc3c(cnn3C(C)C)c2)CC1` | -3.062 | -9.256 | 18.47 |
| 41 | `CC1COCCN1C(=O)Cc1cc(Cl)c2c(c1)OCCCO2` (stereo not drawn) | -24.85 | 3.698 | 7.258 |
| 42 | `CC(C)n1cc(C(=O)N2Cc3ccccc3OC3(CCOCC3)C2)cn1` | -35.66 | -33.5 | 10.7 |
| 43 | `O=C(c1ccccc1N1CCOCC1)N1CCCC(n2ccnc2)C1` (stereo not drawn) | - | 29.82 | -2.482 |
| 44 | `CS(=O)(=O)N1CCn2c(C(=O)N3CCOCC3)cnc2C1` | -66.28 | 11.37 | -5.879 |
| 45 | `Cc1cnc(CN2CCOC(Cn3nc(C)cc3C)C2)cn1` (stereo not drawn) | - | 1.491 | -43.57 |
| 46 | `Cc1cnn(CC2CN(CC(=O)Nc3c(C)nn(C)c3C)CCO2)c1` (stereo not drawn) | -3.613 | 21.78 | 19.48 |
| 47 | `CC(CNC(=O)c1ccc(Cl)cc1I)N1CCCC1` (stereo not drawn) | 25.4 | 23.25 | -1.154 |
| 48 | `CC(C)c1cc(C(=O)N2CCN(Cc3ccsc3)CC2)n[nH]1` | 13.95 | 28.79 | 4.944 |
| 49 | `CCC(C)C(=O)NCc1cccc(OCCN(C)C2CCOCC2)c1` (stereo not drawn) | -79.6 | 10.52 | -0.5057 |
| 50 | `CC(C)Cn1nc2ccc(S(=O)(=O)N3CCC(C)CC3)cn2c1=O` | 3.677 | 58.76 | 9.837 |
| 51 | `COc1ccc([C@@H]2CN(Cc3ccncc3)C[C@H]2c2cc[nH]n2)cc1.O=C(O)CC(O)(CC(=O)O)C(=O)O` | 6.513 | -6.081 | -8.348 |
| 52 | `O=C(c1cnccn1)N1C[C@@H](c2ccccc2)[C@@]2(CCNC2=O)C1` | -53.57 | 6.65 | -4.8 |
| 53 | `O=C(NCCCc1nc(=O)[nH][nH]1)c1ccc(Cl)cn1` | -13.49 | 11.26 | 6.344 |
| 54 | `Cn1nnnc1SC1CCc2ccccc2NC1=O` (stereo not drawn) | -40.78 | -13.65 | -16.93 |
| 55 | `COCCC(=O)N1CCCC1c1nc(O)cc(-c2ccccn2)n1` (stereo not drawn) | 7.48 | 8.575 & 1.301 | 12.24 |
| 56 | `CC(C)c1noc(-c2ccc(NCC3CCCOC3)nc2)n1` (stereo not drawn) | 3.629 | 22.02 | 0.6657 |
| 57 | `Cc1cccc(Nc2cc(C)nc(C3CCCCN3CC(N)=O)n2)n1` (stereo not drawn) | 1.29 | -4.508 & -4.914 | -1.063 |
| 58 | `[H][C@]12CC[C@]([H])(CC(=O)N(CC(=O)N(C)CCCOc3ccccc3Cl)C1)N2` | -75.76 | 12.65 | -1.995 |
| 59 | `CN(C)C(=O)NCc1ncn2c1CN(Cc1ccco1)CCC2.O=C(O)C(F)(F)F` | - | 10.25 | -16.04 |
| 60 | `CC(C)n1nnc(CC(=O)NCC2(c3ccccc3F)CCOCC2)n1` | -34.35 | 16.91 | -12.92 |
| 61 | `CCN1CCC(CC(=O)NCC(O)c2ccc3ccccc3c2)CC1` (stereo not drawn) | -56.32 | 11.45 | -1.095 |
| 62 | `OC1(CN2CCCC2)COCCN(c2cc(C(F)(F)F)ccn2)C1` (stereo not drawn) | -1.34 | 29.85 | -3.369 |

6 of the entries, repeated:

COc1ccc([C@@H]2CN(Cc3ccncc3)C[C@H]2c2cc[nH]n2)cc1.O=C(O)CC(O)(CC(=O)O)C(=O)O gave T. brucei: 6.513%; Leishmania in macrophages: -6.081%; Toxoplasma: -8.348%.
O=C(CN1CCCC(c2ccn[nH]2)C1)N1CCCc2ccccc21 (stereo not drawn) gave T. brucei: -60.51%; Leishmania in macrophages: -7.148%; Toxoplasma: 2.295%.
O=C(c1ccccc1N1CCOCC1)N1CCCC(n2ccnc2)C1 (stereo not drawn) gave Leishmania in macrophages: 29.82%; Toxoplasma: -2.482%.
CC(=O)N1CCN(C(=O)Nc2cnc3c(cnn3C(C)C)c2)CC1 gave T. brucei: -3.062%; Leishmania in macrophages: -9.256%; Toxoplasma: 18.47%.
CCOCC1CN(C(=O)Cc2ccccn2)Cc2cn(C)nc21 (stereo not drawn) gave T. brucei: 21.81%; Leishmania in macrophages: 5.026%; Toxoplasma: 1.486%.
Cc1occc1C(=O)N1CCCC(c2nncn2C)C1 (stereo not drawn) gave Leishmania in macrophages: 5.097%; Toxoplasma: -10.41%.

Measurements from “University of Dundee, Small-Polar-MMV Screening Library” (2021), ChEMBL document CHEMBL3988442.